Laboratory results published in PubChem BioAssay AID248 (DTP/NCI, 2004).
The list shows only some results of the screen, not a fair sample: it gathers tests that were run many times, whatever their T/C, doses with no T/C, and many T/C values between a quarter and a half above the control. Other doses and runs of a compound stand elsewhere. T/C: endpoint of the treated group in % of that of the vehicle group. Some entries give survivors of the animals treated and no T/C: the source files T/C as zero there, which appears to mark a toxic dose or a test without result, not a measured value. Some doses without a T/C left all or most animals alive at the check, yet need not have been tolerated: survival well below the control is almost never listed, so the zero probably covers shortened survival too. Survivors were counted at the toxicity check, usually on the fifth day, unless a day is given; later deaths do not show. Schedules are NCI's codes, taken here to give the interval after Q, in days (D) or hours (H), and the number of doses after X. Some doses were run more than once; the results are listed from low to high. For survival time, this PubChem deposit counts one and a half times the control or more as active, and values a quarter to a half above the control carry no call in these data; other NCI protocols may use other cut-offs. Some T/C values carry the count of animals alive at the toxicity check (mostly the fifth day); where none is given, no animal had died by that day.

System: L1210 leukemia ip in BDF1 mice, survival T/C
Assay: NCI In Vivo Anticancer Drug Screen. Data for tumor model L1210 Leukemia (intraperitoneal) in B6D2F1 (BDF1) mice
Settings: higher T/C = longer survival
[1] = T/C endpoint: mean survival time, dose: 200.0 mg/kg/injection, schedule: Q04DX003 (ip), vehicle: saline with Tween-80
[2] = T/C endpoint: mean survival time, dose: 100.0 mg/kg/injection, schedule: Q01DX009 (ip), vehicle: saline
[3] = T/C endpoint: mean survival time, dose: 400.0 mg/kg/injection, schedule: Q01DX001 (ip), vehicle: saline
[4] = T/C endpoint: mean survival time, dose: 400.0 mg/kg/injection, schedule: Q04DX003 (ip), vehicle: saline
[5] = T/C endpoint: mean survival time, dose: 50.0 mg/kg/injection, schedule: Q01DX009 (ip), vehicle: saline
[6] = T/C endpoint: mean survival time, dose: 400.0 mg/kg/injection, schedule: Q04DX003 (ip), vehicle: saline with Tween-80
[7] = T/C endpoint: mean survival time, dose: 25.0 mg/kg/injection, schedule: Q01DX009 (ip), vehicle: saline
[8] = T/C endpoint: mean survival time, dose: 25.0 mg/kg/injection, schedule: Q04DX003 (ip), vehicle: Klucel (hydroxypropylcellulose) (HPC)
[9] = T/C endpoint: mean survival time, dose: 50.0 mg/kg/injection, schedule: Q04DX003 (ip), vehicle: Klucel (hydroxypropylcellulose) (HPC)
[10] = T/C endpoint: mean survival time, dose: 100.0 mg/kg/injection, schedule: Q04DX003 (ip), vehicle: Klucel (hydroxypropylcellulose) (HPC)
[11] = T/C endpoint: mean survival time, dose: 200.0 mg/kg/injection, schedule: Q04DX003 (ip), vehicle: Klucel (hydroxypropylcellulose) (HPC)
[12] = T/C endpoint: mean survival time, dose: 400.0 mg/kg/injection, schedule: Q04DX003 (ip), vehicle: Klucel (hydroxypropylcellulose) (HPC)
[13] = T/C endpoint: mean survival time, dose: 400.0 mg/kg/injection, schedule: Q01DX009 (ip), vehicle: saline
[14] = T/C endpoint: mean survival time, dose: 200.0 mg/kg/injection, schedule: Q01DX009 (ip), vehicle: saline
[15] = T/C endpoint: mean survival time, dose: 100.0 mg/kg/injection, schedule: Q01DX001 (ip), vehicle: carboxymethylcellulose (CMC)
[16] = T/C endpoint: mean survival time, dose: 150.0 mg/kg/injection, schedule: Q01DX001 (ip), vehicle: carboxymethylcellulose (CMC)
[17] = T/C endpoint: mean survival time, dose: 200.0 mg/kg/injection, schedule: Q01DX001 (ip), vehicle: carboxymethylcellulose (CMC)
[18] = T/C endpoint: mean survival time, dose: 300.0 mg/kg/injection, schedule: Q01DX001 (ip), vehicle: carboxymethylcellulose (CMC)

[O-][n+]1c2ccccc2c(Oc2ccccc2)c2ccc3ccccc3c21
survivor count [1]: 3 of 3

CS(=O)(=O)NN
survivor count [2]: 0 of 6
survivor count (T/C endpoint: mean survival time, dose: 200.0 mg/kg/injection, schedule: Q01DX001 (ip), vehicle: saline): 0 of 4 and 0 of 6
survivor count [3]: 0 of 4

Cc1nc2nc(N)nc(N)c2nc1CNc1ccc(C(=O)NC(CCC(=O)O)C(=O)O)cc1 (stereo not given)
T/C (T/C endpoint: median survival time, dose: 39.0 mg/kg/injection, schedule: Q01DX009 (ip), vehicle: other): 130 % of control

[CH3][Sb]1([CH3])([I])[CH2]CCC[CH2]1
survivor count [4]: 2 of 3

C=C1C(=O)OC2C1C(OC(=O)/C(C)=C/COC(C)=O)CC1(CO1)C1C(O)C=C(C)C21 (stereo not given)
survivor count (T/C endpoint: mean survival time, dose: 100.0 mg/kg/injection, schedule: Q01DX009 (ip), vehicle: alcohol): 1 of 6
survivor count (T/C endpoint: mean survival time, dose: 200.0 mg/kg/injection, schedule: Q01DX009 (ip), vehicle: alcohol): 0 of 6
survivor count (T/C endpoint: mean survival time, dose: 400.0 mg/kg/injection, schedule: Q01DX009 (ip), vehicle: alcohol): 0 of 6

CC#CC(=O)O
survivor count [5]: 3 of 3
survivor count [2]: 2 of 3

NC(Cc1cn(Cc2ccccc2)cn1)C(=O)O (stereo not given)
survivor count (T/C endpoint: mean survival time, dose: 100.0 mg/kg/injection, schedule: Q04DX003 (ip), vehicle: saline with Tween-80): 0 of 3
survivor count [1]: 0 of 3
survivor count [6]: 0 of 3

CC(=O)[O][Hg][CH]1CCCCC1O (stereo not given)
survivor count (T/C endpoint: mean survival time, dose: 25.0 mg/kg/injection, schedule: Q01DX009 (ip), vehicle: saline with Tween-80): 3 of 6
survivor count (T/C endpoint: mean survival time, dose: 50.0 mg/kg/injection, schedule: Q01DX009 (ip), vehicle: saline with Tween-80): 0 of 6

N#CC1=C(C#N)C(=O)C(Cl)=C(Cl)C1=O
survivor count [7]: 0 of 6
survivor count (T/C endpoint: mean survival time, dose: 50.0 mg/kg/injection, schedule: Q04DX003 (ip), vehicle: saline sonified): 0 of 6

CCCCSC1=CC(=O)c2ccccc2C1=O
survivor count [8]: 6 of 6
survivor count [9]: 4 of 6
survivor count [10]: 1 of 6
survivor count [11]: 3 of 6
survivor count [12]: 0 of 6

CCOc1ccc(NC(=O)OCCN2CCN(CCc3ccccc3)C(C)C2)cc1 (stereo not given)
survivor count [3]: 1 of 4

CN(C)C(C)(C)CO
survivor count [13]: 2 of 6

CCCCCCCC/C=C/CCCCCCCCC1=NCCN1CCO
survivor count (T/C endpoint: mean survival time, dose: 40.0 mg/kg/injection, schedule: Q01DX001 (ip), vehicle: saline): 2 of 6
survivor count (T/C endpoint: mean survival time, dose: 75.0 mg/kg/injection, schedule: Q01DX001 (ip), vehicle: acetone): 0 of 6
survivor count (T/C endpoint: mean survival time, dose: 150.0 mg/kg/injection, schedule: Q01DX001 (ip), vehicle: acetone): 0 of 6
survivor count (T/C endpoint: mean survival time, dose: 300.0 mg/kg/injection, schedule: Q01DX001 (ip), vehicle: acetone): 0 of 6

CC(Br)C1=CC(c2ccccc2)(c2ccccc2)c2ccccc21 (stereo not given)
survivor count [1]: 6 of 6

C=C(Cl)CNC(=O)c1ccc([N+](=O)[O-])cc1
survivor count [12]: 1 of 6

COc1cc([N+](=O)[O-])c2c(ccc[n+]2C)c1OC
survivor count [6]: 0 of 6

O=C(O)C1CCSS1 (stereo not given)
survivor count [14]: 2 of 6
survivor count (T/C endpoint: mean survival time, dose: 300.0 mg/kg/injection, schedule: Q01DX009 (ip), vehicle: saline): 0 of 6
survivor count [4]: 0 of 6

Nc1cc(/C=C/c2ccc(/C=C/c3ccc(S(=O)(=O)F)cc3)cc2)nc(N)n1
survivor count (T/C endpoint: mean survival time, dose: 200.0 mg/kg/injection, schedule: Q01DX001 (ip), vehicle: saline with Tween-80): 6 of 6

c1ccc(COc2ccccn2)cc1
survivor count (T/C endpoint: mean survival time, dose: 200.0 mg/kg/injection, schedule: Q01DX009 (ip), vehicle: Klucel (hydroxypropylcellulose) (HPC)): 3 of 6
survivor count [12]: 6 of 6

COc1ccc(C(=O)Nc2ccccc2)cc1NC(=S)Nc1ccccc1
survivor count (T/C endpoint: mean survival time, dose: 400.0 mg/kg/injection, schedule: Q04DX002 (ip), vehicle: Klucel (hydroxypropylcellulose) (HPC)): 3 of 3

COc1ccc(CCNC(=O)Cc2ccccc2)cc1OC
survivor count [6]: 5 of 6

COc1cc(N(CCCl)CCCl)c(OC)cc1/C=N\Nc1nnc(C)n1N
T/C (T/C endpoint: mean survival time, dose: 10.0 mg/kg/injection, schedule: Q01DX015 (ip), vehicle: carboxymethylcellulose (CMC)): 126 % of control [4 of 6 alive]
T/C (T/C endpoint: mean survival time, dose: 18.0 mg/kg/injection, schedule: Q01DX015 (ip), vehicle: carboxymethylcellulose (CMC)): 141 % of control [5 of 6 alive]
survivor count (T/C endpoint: mean survival time, dose: 50.0 mg/kg/injection, schedule: Q01DX015 (ip), vehicle: carboxymethylcellulose (CMC)): 6 of 6
T/C [15]: 126 % of control
T/C [16]: 147 % of control
T/C [17]: 147 % of control

Cc1ccc(S(C)=O)c(C)c1 (stereo not given)
survivor count [13]: 1 of 6

COC(=O)C1OCOC2C(CO)OCOC12 (stereo not given)
survivor count [6]: 6 of 6

COc1cc2c(cc1O)CCN(C)C2Cc1ccc(OC)c(OC)c1 (stereo not given)
survivor count [18]: 1 of 6

O=C(NCCCN1CC1)C(=O)Nc1ccccc1
survivor count [9]: 6 of 6
survivor count [10]: 1 of 6
survivor count [11]: 0 of 6
survivor count [12]: 0 of 6

O=C(/C=C(\Cl)C(=O)NO)NO
survivor count (T/C endpoint: mean survival time, dose: 200.0 mg/kg/injection, schedule: Q01DX009 (ip), vehicle: acetone): 0 of 6
survivor count (T/C endpoint: mean survival time, dose: 400.0 mg/kg/injection, schedule: Q01DX009 (ip), vehicle: acetone): 0 of 6

[Ni+2].[SH2+]C([SH2+])=Nc1ccccc1.[SH2+]C([SH2+])=Nc1ccccc1.c1ccc(C[P+](c2ccccc2)(c2ccccc2)c2ccccc2)cc1
survivor count (T/C endpoint: mean survival time, dose: 12.0 mg/kg/injection, schedule: Q01DX009 (ip), vehicle: saline): 5 of 6
survivor count [7]: 0 of 6
survivor count [5]: 1 of 6
survivor count [2]: 0 of 6
survivor count [14]: 0 of 6

C[n+]1ccc(/C=C/c2csc3ccccc23)cc1
survivor count (T/C endpoint: mean survival time, dose: 80.0 mg/kg/injection, schedule: Q01DX001 (ip), vehicle: carboxymethylcellulose (CMC)): 2 of 4
survivor count [15]: 2 of 4
survivor count [17]: 0 of 4
survivor count (T/C endpoint: mean survival time, dose: 400.0 mg/kg/injection, schedule: Q01DX001 (ip), vehicle: carboxymethylcellulose (CMC)): 0 of 4

O=C1c2ccccc2C(Br)(c2ccccc2)C1Br (stereo not given)
survivor count (T/C endpoint: mean survival time, dose: 50.0 mg/kg/injection, schedule: Q01DX009 (ip), vehicle: other): 3 of 6
survivor count (T/C endpoint: mean survival time, dose: 100.0 mg/kg/injection, schedule: Q01DX009 (ip), vehicle: other): 2 of 6
survivor count (T/C endpoint: mean survival time, dose: 200.0 mg/kg/injection, schedule: Q01DX009 (ip), vehicle: other): 1 of 6

OCC(O)COc1ccc(Cl)cc1Cl (stereo not given)
survivor count (T/C endpoint: mean survival time, dose: 400.0 mg/kg/injection, schedule: Q01DX009 (ip), vehicle: saline with Tween-80): 1 of 6

OC1OC(COCc2ccccc2)C(OCc2ccccc2)C1OCc1ccccc1 (stereo not given)
survivor count (T/C endpoint: mean survival time, dose: 400.0 mg/kg/injection, schedule: Q01DX001 (ip), vehicle: saline with Tween-80): 3 of 3

CCCN(CCC)c1ccc(SC#N)cc1
survivor count [3]: 1 of 4

NC(=O)c1cc(Cl)cc(Cl)c1Br
survivor count (T/C endpoint: mean survival time, dose: 400.0 mg/kg/injection, schedule: Q04DX003 (ip), vehicle: other): 2 of 6

Cc1ccc2c(c1)C(=O)CCC2
T/C (T/C endpoint: mean survival time, dose: 100.0 mg/kg/injection, schedule: Q01DX001 (ip), vehicle: saline): 125 % of control

CC/C=C(\C)C1(CC)C(=O)NC(=S)NC1=O
survivor count [16]: 1 of 6
survivor count [18]: 0 of 6

Cc1c(C)c(N)c(C)c(C)c1N
survivor count (T/C endpoint: mean survival time, dose: 25.0 mg/kg/injection, schedule: Q01DX009 (ip), vehicle: Klucel (hydroxypropylcellulose) (HPC)): 0 of 6
survivor count [8]: 0 of 6
survivor count [9]: 0 of 6
survivor count [10]: 0 of 6
survivor count [11]: 0 of 6
survivor count [12]: 0 of 6
